Drug screen on melanoma cell lines: cell count

Data from the primary screen of doi:10.1371/journal.pone.0140310, rounded.

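Human melanoma cells were exposed to two drugs together for 72 h in 1,536-well plates and read by automated microscopy after fixing and staining. Each value is the count of nuclei relative to DMSO-treated wells, in %, so that 100 equals the control. Every drug was used at one fixed concentration, the lower of two screened (a fifth of the higher). No replicate spread is given; individual values may be noisy.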
This is part of the screen, not chosen by result.

Compounds and concentrations:
SNS-314 (0.0008 µM): O=C(Nc1cccc(Cl)c1)Nc1ncc(CCNc2ncnc3ccsc23)s1
KU-55933 (1 µM): O=c1cc(-c2cccc3c2Sc2ccccc2S3)oc(N2CCOCC2)c1
pioglitazone (2 µM): CCc1ccc(CCOc2ccc(CC3SC(=O)NC3=O)cc2)nc1 (configuration not stated)
tamatinib (0.4 µM): COc1cc(Nc2ncc(F)c(Nc3ccc4c(n3)NC(=O)C(C)(C)O4)n2)cc(OC)c1OC
dasatinib (0.004 µM): Cc1nc(Nc2ncc(C(=O)Nc3c(C)cccc3Cl)s2)cc(N2CCN(CCO)CC2)n1
GW0742 (2 µM): Cc1cc(SCc2sc(-c3ccc(C(F)(F)F)c(F)c3)nc2C)ccc1OCC(=O)O
bortezomib (0.001 µM): CC(C)C[C@H](NC(=O)[C@H](Cc1ccccc1)NC(=O)c1cnccn1)B(O)O
ZM336372 (2 µM): Cc1ccc(NC(=O)c2cccc(N(C)C)c2)cc1NC(=O)c1ccc(O)cc1
PD173074 (0.1 µM): CCN(CC)CCCCNc1ncc2cc(-c3cc(OC)cc(OC)c3)c(NC(=O)NC(C)(C)C)nc2n1

| # | Drugs | COLO 792 |
|---|---|---|
| 1 | GW0742 + PD173074 | 83.7 |
| 2 | PD173074 + dasatinib | 49.7 |
| 3 | bortezomib + tamatinib | 69.8 |
| 4 | SNS-314 + PD173074 | 101 |
| 5 | GW0742 + tamatinib | 67.5 |
| 6 | ZM336372 + GW0742 | 117 |
| 7 | PD173074 + pioglitazone | 99.5 |
| 8 | pioglitazone + dasatinib | 65.6 |
| 9 | ZM336372 + PD173074 | 94.8 |
| 10 | KU-55933 + tamatinib | 59.7 |
| 11 | tamatinib + pioglitazone | 50.3 |
| 12 | pioglitazone + SNS-314 | 100 |
| 13 | bortezomib + KU-55933 | 94.4 |
| 14 | PD173074 + tamatinib | 61.0 |
| 15 | pioglitazone + ZM336372 | 112 |
| 16 | SNS-314 + KU-55933 | 88.0 |
| 17 | GW0742 + dasatinib | 58.8 |
| 18 | pioglitazone + KU-55933 | 99.4 |
| 19 | bortezomib + ZM336372 | 100 |
| 20 | KU-55933 + ZM336372 | 111 |
| 21 | KU-55933 + dasatinib | 50.0 |

Some entries from above, unchanged:

Drugs,COLO 792
PD173074 + dasatinib,49.7
GW0742 + dasatinib,58.8